For the assay, the system named is HEK293A TEAD-LUC reporter. The experiment in a line: TEAD-luciferase reporter activity (YAP activation), robust Z score vs plate; higher = stronger YAP/TEAD activation. Particulars: 24 h.

Structures can show the parent of a compound that is named as a salt. This is one part of the list. Repeats in this data set agree poorly, so a single value says little.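 In a drug-repurposing library screen, luminescence reads luciferase driven by eight TEAD-binding elements, stably integrated into human kidney-derived cells. Compounds scoring over five robust Z scores above the plate mean are called hits.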

Regarding `CO[C@@H]1[C@@H](OC(N)=O)[C@@H](O)[C@H](Oc2ccc3c(O)c(NC(=O)c4ccc(O)c(CC=C(C)C)c4)c(=O)oc3c2C)OC1(C)C` [Novobiocin sodium], the TEAD-luciferase reporter activity was inactive: -0.456 (compound concentration: 200 nM), inactive: -1.62 (compound concentration: 2 uM) and inactive: -0.574 (compound concentration: 10 uM).

`CCCCCC(O)c1cccc(OCc2ccc3ccccc3n2)c1` (configuration not stated): the TEAD-luciferase reporter activity reads like this: (compound concentration: 200 nM) inactive: 0.0477; (compound concentration: 2 uM) inactive: -0.585; (compound concentration: 10 uM) inactive: 1.12.

Regarding `CCN1CCN(CCC(=O)Nc2ccccc2C)CC1`, the TEAD-luciferase reporter activity is inactive: -2.29 (compound concentration: 200 nM), inactive: 2.3 (compound concentration: 2 uM) and inactive: -1.04 (compound concentration: 10 uM).

As for `CCCCCCCCC#CCC#CCC#CCCCC(=O)NCCOCCO`, the TEAD-luciferase reporter activity is inactive: -1.29 (compound concentration: 200 nM), inactive: -0.576 (compound concentration: 2 uM) and inactive: 0.646 (compound concentration: 10 uM).

Regarding `O=S(=O)(Nc1ccc(CCNC[C@@H](O)c2cccnc2)cc1)c1ccc(-c2nc(-c3ccc(C(F)(F)F)cc3)cs2)cc1`, the TEAD-luciferase reporter activity runs as follows: (compound concentration: 200 nM) inactive: 1.65; (compound concentration: 2 uM) inactive: -1.16; (compound concentration: 10 uM) inactive: -0.706.

On to `Cc1cc(C)c(NC(=O)C(C)(C)C)c2c1CCN2CC1CC1`, for which the TEAD-luciferase reporter activity (compound concentration: 200 nM) is inactive: -1.22, the TEAD-luciferase reporter activity (compound concentration: 2 uM) is inactive: 4.03 and the TEAD-luciferase reporter activity (compound concentration: 10 uM) was inactive: 3.27.

For the molecule `NC1CCN(c2cccc(Br)n2)CC1`, the TEAD-luciferase reporter activity reads like this: (compound concentration: 200 nM) inactive: -0.94; (compound concentration: 2 uM) inactive: 2.88; (compound concentration: 10 uM) inactive: 0.231.

`CC(=O)NCCC(=O)N1Cc2ccccc2CC2(CCCN2CC2CCNCC2)C1` (configuration not stated): the TEAD-luciferase reporter activity (compound concentration: 200 nM) is inactive: 1.12.

Take `CC(c1cc2ccccc2s1)N(O)C(N)=O` (configuration not stated): the TEAD-luciferase reporter activity runs as follows: (compound concentration: 200 nM) inactive: 3.64; (compound concentration: 10 uM) inactive: 1.35.

With `CC(c1cc2ccccc2s1)N(O)C(N)=O` (configuration not stated) [zileuton], under “compound concentration: 2 uM”, the TEAD-luciferase reporter activity is inactive: -2.2.

Take `O=C(O)c1ccc(-n2nc(-c3ccccc3O)nc2-c2ccccc2O)cc1` [deferasirox]: the TEAD-luciferase reporter activity was inactive: -0.749 (compound concentration: 200 nM), inactive: -2.48 (compound concentration: 2 uM) and inactive: 0.672 (compound concentration: 10 uM).

Take `OC(c1ccccc1)(c1ccccc1)C1CC1`: the TEAD-luciferase reporter activity (compound concentration: 200 nM) was inactive: -0.716, the TEAD-luciferase reporter activity (compound concentration: 2 uM) is inactive: -1.68 and the TEAD-luciferase reporter activity (compound concentration: 10 uM) is inactive: -0.868.

With `CC(C)=C/C(C)=N/N=c1\[nH]ncc2ccccc12`, the TEAD-luciferase reporter activity was inactive: -1.46 (compound concentration: 200 nM), inactive: -0.75 (compound concentration: 2 uM) and inactive: 3.06 (compound concentration: 10 uM).

`NS(=O)(=O)c1cc2c(cc1Cl)NC(c1ccccc1)NC2=O` (configuration not stated) [fenquizone]: the TEAD-luciferase reporter activity (compound concentration: 200 nM) is inactive: 0.517, the TEAD-luciferase reporter activity (compound concentration: 2 uM) is inactive: -1.15 and the TEAD-luciferase reporter activity (compound concentration: 10 uM) is inactive: 0.25.

For `O=C1[C@@H]2[C@H]3C=C[C@H]([C@@H]4C=C[C@@H]43)[C@@H]2C(=O)N1CCCCN1CCN(c2ncccn2)CC1`, the TEAD-luciferase reporter activity (compound concentration: 200 nM) is inactive: -1.36, the TEAD-luciferase reporter activity (compound concentration: 2 uM) was inactive: -1.52 and the TEAD-luciferase reporter activity (compound concentration: 10 uM) was inactive: -1.92.

On to `CC(=O)N[C@H](CCCNC(=N)N)C(=O)N[C@H](CCCNC(=N)N)C(=O)N[C@H](CCCNC(=N)N)C(=O)N[C@H](CCCNC(=N)N)C(=O)N[C@H](CCCNC(=N)N)C(=O)N[C@H](CCCNC(=N)N)C(=O)N[C@H](CCCNC(=N)N)C(=O)N[C@H](CCCNC(=N)N)C(=O)N[C@H](CCCNC(=N)N)C(N)=O` [ALX 40-4C Trifluoroacetate], for which the TEAD-luciferase reporter activity is inactive: -0.981 (compound concentration: 200 nM) and inactive: 2.01 (compound concentration: 10 uM).

The record behind these values is the supplement of paper PMC10735217.
